# Measurements from the supplement of paper PMC4604168 (melanoma cell lines).
# The list shows a part of the results. Repeats are few or missing, and single values can be far off.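 Cells were imaged in 1,536-well plates, and nuclei stained with an antibody against cleaved PARP were counted against all DNA-stained nuclei to give the apoptosis fraction. Screening doses were chosen to leave most cells alive, and resting and induced cleaved-PARP levels differ strongly between cell lines.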
# Assays:
# Test in all cases: cleaved PARP positive nuclei fraction relative to DMSO control; melanoma cells; higher = more apoptosis
# Conditions in all cases: library dose: low library concentration; 72 h
# MZ2-MEL = system: MZ2-MEL
# MeWo = system: MeWo
# RPMI7951 = system: RPMI7951
# RVH-421 = system: RVH-421
# SkMel28 = system: SkMel28
# SkMel2 = system: SkMel2
# SkMel30 = system: SkMel30
# UACC62 = system: UACC62
smiles,measurement,setting,value
"COc1ccc(C2=N[C@@H](c3ccc(Cl)cc3)[C@@H](c3ccc(Cl)cc3)N2C(=O)N2CCNC(=O)C2)c(OC(C)C)c1 [Nutlin-3] + Cn1c(Nc2ccc(C(F)(F)F)cc2)nc2cc(Oc3ccnc(-c4ncc(C(F)(F)F)[nH]4)c3)ccc21 [CHIR265] (first compound 0.1 µM, partner dose 0.08 µM)",cleaved PARP positive nuclei fraction,MZ2-MEL,31.8%
same,cleaved PARP positive nuclei fraction,MeWo,266%
same,cleaved PARP positive nuclei fraction,RPMI7951,202%
same,cleaved PARP positive nuclei fraction,RVH-421,137%
same,cleaved PARP positive nuclei fraction,SkMel28,259%
same,cleaved PARP positive nuclei fraction,SkMel2,247%
same,cleaved PARP positive nuclei fraction,SkMel30,124%
same,cleaved PARP positive nuclei fraction,UACC62,241%
"CC(=O)O[C@@]12CO[C@@H]1C[C@H](O)[C@@]1(C)C(=O)[C@H](O)C3=C(C)[C@@H](OC(=O)[C@H](O)[C@@H](NC(=O)OC(C)(C)C)c4ccccc4)C[C@@](O)([C@@H](OC(=O)c4ccccc4)[C@H]21)C3(C)C [Docetaxel] + C=C(c1ccc(C(=O)O)cc1)c1cc2c(cc1C)C(C)(C)CCC2(C)C [Bexarotene] (first compound 0.0001 µM, partner dose 2 µM)",cleaved PARP positive nuclei fraction,MZ2-MEL,819%
same,cleaved PARP positive nuclei fraction,MeWo,449%
same,cleaved PARP positive nuclei fraction,RPMI7951,155%
same,cleaved PARP positive nuclei fraction,RVH-421,78.9%
same,cleaved PARP positive nuclei fraction,SkMel28,175%
same,cleaved PARP positive nuclei fraction,SkMel2,1130%
same,cleaved PARP positive nuclei fraction,SkMel30,376%
same,cleaved PARP positive nuclei fraction,UACC62,332%
"C[C@@H](N)c1ccc(C(=O)Nc2ccnc3[nH]ccc23)cc1 + NC1(c2ccc(-c3nc4ccn5c(=O)[nH]nc5c4cc3-c3ccccc3)cc2)CCC1 [MK2206] (first compound 0.4 µM, partner dose 0.4 µM)",cleaved PARP positive nuclei fraction,MZ2-MEL,503%
same,cleaved PARP positive nuclei fraction,MeWo,215%
same,cleaved PARP positive nuclei fraction,RPMI7951,104%
same,cleaved PARP positive nuclei fraction,RVH-421,172%
same,cleaved PARP positive nuclei fraction,SkMel28,174%
same,cleaved PARP positive nuclei fraction,SkMel2,130%
same,cleaved PARP positive nuclei fraction,SkMel30,64.2%
same,cleaved PARP positive nuclei fraction,UACC62,359%
"COc1ccc(C2=N[C@@H](c3ccc(Cl)cc3)[C@@H](c3ccc(Cl)cc3)N2C(=O)N2CCNC(=O)C2)c(OC(C)C)c1 [Nutlin-3] + Cn1c(=O)n(-c2ccc(C(C)(C)C#N)cc2)c2c3cc(-c4cnc5ccccc5c4)ccc3ncc21 [NVP-BEZ235] (first compound 0.1 µM, partner dose 0.004 µM)",cleaved PARP positive nuclei fraction,MZ2-MEL,118%
same,cleaved PARP positive nuclei fraction,MeWo,92.2%
same,cleaved PARP positive nuclei fraction,RPMI7951,42.1%
same,cleaved PARP positive nuclei fraction,RVH-421,88%
same,cleaved PARP positive nuclei fraction,SkMel28,63%
same,cleaved PARP positive nuclei fraction,SkMel2,94.7%
same,cleaved PARP positive nuclei fraction,SkMel30,98.7%
same,cleaved PARP positive nuclei fraction,UACC62,141%
"C[C@@H](N)c1ccc(C(=O)Nc2ccnc3[nH]ccc23)cc1 + COc1ccc(C2=N[C@@H](c3ccc(Cl)cc3)[C@@H](c3ccc(Cl)cc3)N2C(=O)N2CCNC(=O)C2)c(OC(C)C)c1 [Nutlin-3] (first compound 0.4 µM, partner dose 0.1 µM)",cleaved PARP positive nuclei fraction,MZ2-MEL,289%
same,cleaved PARP positive nuclei fraction,MeWo,213%
same,cleaved PARP positive nuclei fraction,RPMI7951,99%
same,cleaved PARP positive nuclei fraction,RVH-421,189%
same,cleaved PARP positive nuclei fraction,SkMel28,109%
same,cleaved PARP positive nuclei fraction,SkMel2,57%
same,cleaved PARP positive nuclei fraction,SkMel30,41.2%
same,cleaved PARP positive nuclei fraction,UACC62,131%
"CN(c1ncccc1CNc1nc(Nc2ccc3c(c2)CC(=O)N3)ncc1C(F)(F)F)S(C)(=O)=O + Nc1ccn([C@@H]2O[C@H](CO)[C@@H](O)C2(F)F)c(=O)n1 [gemcitabine] (first compound 0.08 µM, partner dose 0.0004 µM)",cleaved PARP positive nuclei fraction,MZ2-MEL,119%
same,cleaved PARP positive nuclei fraction,MeWo,1560%
same,cleaved PARP positive nuclei fraction,RPMI7951,75.7%
same,cleaved PARP positive nuclei fraction,RVH-421,60.7%
same,cleaved PARP positive nuclei fraction,SkMel28,106%
same,cleaved PARP positive nuclei fraction,SkMel2,222%
same,cleaved PARP positive nuclei fraction,SkMel30,29.2%
same,cleaved PARP positive nuclei fraction,UACC62,148%
"Cn1cnc2c(F)c(Nc3ccc(Br)cc3Cl)c(C(=O)NOCCO)cc21 [selumetinib] + CCCCCCCCc1ccc(CCC(N)(CO)CO)cc1 [fingolimod] (first compound 0.015 µM, partner dose 2 µM)",cleaved PARP positive nuclei fraction,MZ2-MEL,150%
same,cleaved PARP positive nuclei fraction,MeWo,43.6%
same,cleaved PARP positive nuclei fraction,RPMI7951,95.8%
same,cleaved PARP positive nuclei fraction,RVH-421,118%
same,cleaved PARP positive nuclei fraction,SkMel28,97.9%
same,cleaved PARP positive nuclei fraction,SkMel2,223%
same,cleaved PARP positive nuclei fraction,SkMel30,169%
same,cleaved PARP positive nuclei fraction,UACC62,466%
"NC(=O)c1ccc(N(C(N)=O)c2c(F)cccc2F)nc1-c1ccc(F)cc1F + Cn1c(Nc2ccc(C(F)(F)F)cc2)nc2cc(Oc3ccnc(-c4ncc(C(F)(F)F)[nH]4)c3)ccc21 [CHIR265] (first compound 0.4 µM, partner dose 0.08 µM)",cleaved PARP positive nuclei fraction,MZ2-MEL,86.4%
same,cleaved PARP positive nuclei fraction,MeWo,91.9%
same,cleaved PARP positive nuclei fraction,RPMI7951,51.2%
same,cleaved PARP positive nuclei fraction,RVH-421,78%
same,cleaved PARP positive nuclei fraction,SkMel28,93.8%
same,cleaved PARP positive nuclei fraction,SkMel2,169%
same,cleaved PARP positive nuclei fraction,SkMel30,72.4%
same,cleaved PARP positive nuclei fraction,UACC62,158%
"CS(=O)(=O)c1ccc(C(=O)Nc2ccc(Cl)c(-c3ccccn3)c2)c(Cl)c1 [vismodegib] + CCCCCCCCc1ccc(CCC(N)(CO)CO)cc1 [fingolimod] (first compound 1 µM, partner dose 2 µM)",cleaved PARP positive nuclei fraction,MZ2-MEL,103%
same,cleaved PARP positive nuclei fraction,MeWo,115%
same,cleaved PARP positive nuclei fraction,RPMI7951,38.7%
same,cleaved PARP positive nuclei fraction,RVH-421,83.4%
same,cleaved PARP positive nuclei fraction,SkMel28,87.8%
same,cleaved PARP positive nuclei fraction,SkMel2,108%
same,cleaved PARP positive nuclei fraction,SkMel30,52.2%
same,cleaved PARP positive nuclei fraction,UACC62,193%
"Cn1cnc2c(F)c(Nc3ccc(Br)cc3Cl)c(C(=O)NOCCO)cc21 [selumetinib] + C[C@]1(O)C[C@@H](c2nc(-c3ccc4ccc(-c5ccccc5)nc4c3)c3c(N)nccn32)C1 [OSI906] (first compound 0.015 µM, partner dose 0.4 µM)",cleaved PARP positive nuclei fraction,MZ2-MEL,324%
same,cleaved PARP positive nuclei fraction,MeWo,70.9%
same,cleaved PARP positive nuclei fraction,RPMI7951,102%
same,cleaved PARP positive nuclei fraction,RVH-421,92%
same,cleaved PARP positive nuclei fraction,SkMel28,90.4%
same,cleaved PARP positive nuclei fraction,SkMel2,374%
same,cleaved PARP positive nuclei fraction,SkMel30,282%
same,cleaved PARP positive nuclei fraction,UACC62,154%
"CCCCCCCCc1ccc(CCC(N)(CO)CO)cc1 [fingolimod] + CC(=O)O[C@@]12CO[C@@H]1C[C@H](O)[C@@]1(C)C(=O)[C@H](O)C3=C(C)[C@@H](OC(=O)[C@H](O)[C@@H](NC(=O)OC(C)(C)C)c4ccccc4)C[C@@](O)([C@@H](OC(=O)c4ccccc4)[C@H]21)C3(C)C [Docetaxel] (first compound 2 µM, partner dose 0.0001 µM)",cleaved PARP positive nuclei fraction,MZ2-MEL,385%
same,cleaved PARP positive nuclei fraction,MeWo,411%
same,cleaved PARP positive nuclei fraction,RPMI7951,205%
same,cleaved PARP positive nuclei fraction,RVH-421,54.2%
same,cleaved PARP positive nuclei fraction,SkMel28,114%
same,cleaved PARP positive nuclei fraction,SkMel2,544%
same,cleaved PARP positive nuclei fraction,SkMel30,169%
same,cleaved PARP positive nuclei fraction,UACC62,181%
"NC(=O)c1ccc(N(C(N)=O)c2c(F)cccc2F)nc1-c1ccc(F)cc1F + Cn1c(=O)n(-c2ccc(C(C)(C)C#N)cc2)c2c3cc(-c4cnc5ccccc5c4)ccc3ncc21 [NVP-BEZ235] (first compound 0.4 µM, partner dose 0.004 µM)",cleaved PARP positive nuclei fraction,MZ2-MEL,102%
same,cleaved PARP positive nuclei fraction,MeWo,25.4%
same,cleaved PARP positive nuclei fraction,RPMI7951,48.6%
same,cleaved PARP positive nuclei fraction,RVH-421,112%
same,cleaved PARP positive nuclei fraction,SkMel28,186%
same,cleaved PARP positive nuclei fraction,SkMel2,20.2%
same,cleaved PARP positive nuclei fraction,SkMel30,102%
same,cleaved PARP positive nuclei fraction,UACC62,119%
"CCCCCCCCc1ccc(CCC(N)(CO)CO)cc1 [fingolimod] + NC1(c2ccc(-c3nc4ccn5c(=O)[nH]nc5c4cc3-c3ccccc3)cc2)CCC1 [MK2206] (first compound 2 µM, partner dose 0.4 µM)",cleaved PARP positive nuclei fraction,MZ2-MEL,164%
same,cleaved PARP positive nuclei fraction,MeWo,119%
same,cleaved PARP positive nuclei fraction,RPMI7951,35.4%
same,cleaved PARP positive nuclei fraction,RVH-421,199%
same,cleaved PARP positive nuclei fraction,SkMel28,170%
same,cleaved PARP positive nuclei fraction,SkMel2,99.5%
same,cleaved PARP positive nuclei fraction,SkMel30,83%
same,cleaved PARP positive nuclei fraction,UACC62,138%
"CC1(C)CCC(c2ccc(Cl)cc2)=C(CN2CCN(c3ccc(C(=O)NS(=O)(=O)c4ccc(N[C@H](CCN5CCOCC5)CSc5ccccc5)c(S(=O)(=O)C(F)(F)F)c4)cc3)CC2)C1 + C[C@@H](N)c1ccc(C(=O)Nc2ccnc3[nH]ccc23)cc1 [RKI983] (first compound 0.4 µM, partner dose 0.4 µM)",cleaved PARP positive nuclei fraction,MZ2-MEL,477%
same,cleaved PARP positive nuclei fraction,MeWo,2840%
same,cleaved PARP positive nuclei fraction,RPMI7951,432%
same,cleaved PARP positive nuclei fraction,RVH-421,419%
same,cleaved PARP positive nuclei fraction,SkMel28,163%
same,cleaved PARP positive nuclei fraction,SkMel2,222%
same,cleaved PARP positive nuclei fraction,SkMel30,184%
same,cleaved PARP positive nuclei fraction,UACC62,249%
"NC(=O)c1ccc(N(C(N)=O)c2c(F)cccc2F)nc1-c1ccc(F)cc1F + C#Cc1cccc(Nc2ncnc3cc(OCCOC)c(OCCOC)cc23)c1 [erlotinib] (first compound 0.4 µM, partner dose 0.8 µM)",cleaved PARP positive nuclei fraction,MZ2-MEL,17.6%
same,cleaved PARP positive nuclei fraction,MeWo,165%
same,cleaved PARP positive nuclei fraction,RPMI7951,60.2%
same,cleaved PARP positive nuclei fraction,RVH-421,117%
same,cleaved PARP positive nuclei fraction,SkMel28,94.6%
same,cleaved PARP positive nuclei fraction,SkMel2,45.8%
same,cleaved PARP positive nuclei fraction,SkMel30,152%
same,cleaved PARP positive nuclei fraction,UACC62,290%
"CS(=O)(=O)c1ccc(C(=O)Nc2ccc(Cl)c(-c3ccccn3)c2)c(Cl)c1 [vismodegib] + C[C@@H](Oc1cc(-c2cnn(C3CCNCC3)c2)cnc1N)c1c(Cl)ccc(F)c1Cl [Crizotinib] (first compound 1 µM, partner dose 0.2 µM)",cleaved PARP positive nuclei fraction,MZ2-MEL,67.8%
same,cleaved PARP positive nuclei fraction,MeWo,149%
same,cleaved PARP positive nuclei fraction,RPMI7951,127%
same,cleaved PARP positive nuclei fraction,RVH-421,59.3%
same,cleaved PARP positive nuclei fraction,SkMel28,93.6%
same,cleaved PARP positive nuclei fraction,SkMel2,108%
same,cleaved PARP positive nuclei fraction,SkMel30,50.2%
same,cleaved PARP positive nuclei fraction,UACC62,62.1%

# 5 entries from above, with tabs:
smiles	measurement	setting	value
C[C@@H](N)c1ccc(C(=O)Nc2ccnc3[nH]ccc23)cc1 + NC1(c2ccc(-c3nc4ccn5c(=O)[nH]nc5c4cc3-c3ccccc3)cc2)CCC1 [MK2206] (first compound 0.4 µM, partner dose 0.4 µM)	cleaved PARP positive nuclei fraction	RVH-421	172%
same	cleaved PARP positive nuclei fraction	UACC62	359%
COc1ccc(C2=N[C@@H](c3ccc(Cl)cc3)[C@@H](c3ccc(Cl)cc3)N2C(=O)N2CCNC(=O)C2)c(OC(C)C)c1 [Nutlin-3] + Cn1c(=O)n(-c2ccc(C(C)(C)C#N)cc2)c2c3cc(-c4cnc5ccccc5c4)ccc3ncc21 [NVP-BEZ235] (first compound 0.1 µM, partner dose 0.004 µM)	cleaved PARP positive nuclei fraction	MeWo	92.2%
same	cleaved PARP positive nuclei fraction	SkMel2	94.7%
CCCCCCCCc1ccc(CCC(N)(CO)CO)cc1 [fingolimod] + CC(=O)O[C@@]12CO[C@@H]1C[C@H](O)[C@@]1(C)C(=O)[C@H](O)C3=C(C)[C@@H](OC(=O)[C@H](O)[C@@H](NC(=O)OC(C)(C)C)c4ccccc4)C[C@@](O)([C@@H](OC(=O)c4ccccc4)[C@H]21)C3(C)C [Docetaxel] (first compound 2 µM, partner dose 0.0001 µM)	cleaved PARP positive nuclei fraction	MZ2-MEL	385%
